Assay results taken from PubChem BioAssay AID493014 (National Center for Advancing Translational Sciences (NCATS), 2011).
The list shows a part of the results. These are further read-outs of the screen, such as a control signal, another cell line or another target. No call is given for them. Most of these compounds were active or inconclusive in the main read-out, so they are no random draw. Potencies come from curve fits of mixed quality, noted in brackets.

Assay: qHTS Assay to Find Inhibitors of Chronic Active B-Cell Receptor Signaling
Conditions: ABC-DLBCL IkBa-CBG/CBR reporter, luminescence ratio (green luciferase fused to IkBa over red control in TMD8 lymphoma cells), 4 h
In short: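 TMD8 ABC-DLBCL cells carrying doxycycline-inducible green luciferase fused to IkappaBalpha plus unfused red luciferase were exposed to compounds (up to 46 uM) for 4 hrs at 37C. Activity came from the overlap-corrected green/red luminescence ratio.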

[1] = measured here: CBR red luminescence, cell number
[2] = measured here: IkBa-CBG green luminescence

| SMILES | AC50 [1] | AC50 [2] |
| --- | --- | --- |
| O=C(/C=C/c1ccco1)NC(=S)Nc1cccc([N+](=O)[O-])c1 | 0.116 µM [rising, full curve, poor fit] | – |
| Cc1ccc(NC(=O)c2c(Cl)n(C)c3ccccc23)cc1 | 35.5 µM [falling, single point] | – |
| COc1ccc(C2=NN(C(=O)CCCC(=O)O)C(c3cccs3)C2)cc1OC (stereo unspecified) | 11.2 µM [rising, partial curve, poor fit] | – |
| CCOc1ccccc1NC1=C(Cl)C(=O)N(c2ccccc2)C1=O | 23.1 µM [falling, single point] | – |
| C=CC[C@@H](CC(=O)N(CCO)Cc1ccccc1)C(=O)N[C@@H](COC(=O)[C@H](CC=C)CC(=O)OC(C)(C)C)Cc1c[nH]c2ccccc12 | 20.6 µM [falling, partial curve, poor fit] | – |
| Cc1ccc(CCN2CC(C(=O)NCCc3ccccc3)CC2=O)cc1 (stereo unspecified) | 35.5 µM [rising, single point] | – |
| COc1cc(C)c(CN2CCN(S(=O)(=O)c3ccc(Cl)s3)CC2)cc1OC | 6.51 µM [rising, single point] | – |
| COc1ccc(CCNC(=O)NCCc2c[nH]c3ccccc23)cc1OC | 35.5 µM [rising, single point] | – |
| O=C(NC(=S)N1CCN(c2ccc(F)cc2)CC1)c1cccs1 | 14.1 µM [rising, single point] | 10 µM [falling, partial curve, poor fit] |
| Cc1cc(C(C)(C)C)oc1C(=O)N(CC(=O)NC1CCCC1)Cc1ccc(F)cc1 | 1.3 µM [rising, full curve, poor fit] | – |
| CC(C(=O)N1CCCC1)c1ccc([N+](=O)[O-])cc1 (stereo unspecified) | 22.4 µM [rising, single point] | – |
| CC(=O)c1cccc(S(=O)(=O)NCC(c2ccco2)N2CCCCC2)c1 (stereo unspecified) | 22.4 µM [falling, partial curve, poor fit] | – |
| O=C(CCCN1C(=O)/C(=C/c2ccccc2Cl)SC1=S)NNC(=O)c1cccnc1 | 7.94 µM [falling, partial curve] | – |
| C/C(=N/NS(=O)(=O)c1ccc(Cl)cc1)c1cccc(NC(=O)c2ccc(Cl)cc2Cl)c1 | 44.7 µM [falling, partial curve, poor fit] | – |
| C=Cc1cccc(NC(=O)COc2ccccc2)c1 | 6.51 µM [falling, single point] | 6.51 µM [rising, partial curve, poor fit] |
| CCOc1ccccc1/C=N/NC(=O)c1cc(C(C)C)[nH]n1 | 3.16 µM [falling, partial curve, poor fit] | – |
| Cc1nnc(SCc2nc3ccccc3s2)n1N | 20 µM [rising, partial curve, poor fit] | – |
| CCOc1ccc(NC(=O)CC2Nc3ccccc3NC2=O)cc1 (stereo unspecified) | 35.5 µM [rising, single point] | – |
| O=C(Nc1ccccc1)c1nnsc1S(=O)c1ccc(Cl)cc1 (stereo unspecified) | 7.08 µM [falling, partial curve] | 11.2 µM [rising, partial curve, poor fit] |
| CCCC1C(=O)Nc2ccccc2N1C(=O)c1ccc(C(C)(C)C)cc1 (stereo unspecified) | 14.1 µM [falling, partial curve, poor fit] | – |
| C/C(=N\NC(=O)c1c[nH]c2ccccc12)c1ccc(C)o1 | 8.2 µM [falling, partial curve, poor fit] | – |

| SMILES | AC50 [1] | AC50 [2] |
| --- | --- | --- |
| N#Cc1c2n(c3c(=O)n(Cc4ccc(Cl)cc4)cnc13)CCCCC2 | 7.31 µM [rising, partial curve, poor fit] | – |
| N#CC1=C(N)N=C(SCc2ccccc2)C(C(N)=O)C12CCCCC2 (stereo unspecified) | 6.51 µM [falling, single point] | – |
| COc1ccc(NC(=O)c2cccc3c2C(=O)c2ccc(-c4ccc(F)cc4OCc4ccccc4)cc2S3(=O)=O)cc1 | 3.26 µM [rising, full curve] | – |
| O=C(NCc1ccccc1)c1ccc(Cl)c(S(=O)(=O)N2CCCC2)c1 | 20.6 µM [rising, single point] | – |
| CC(=NCCCn1ccnc1)c1c(C)[nH]n(-c2ccc([N+](=O)[O-])cc2)c1=O | 31.6 µM [falling, single point] | – |
| CCOC(=O)c1sc(NC(=S)NC(=O)CC(C)C)cc1C | 0.794 µM [falling, partial curve] | – |
| C/C(=N/NS(=O)(=O)c1ccccc1)c1ccc(NC(=O)C2CC2)cc1 | 11.2 µM [falling, single point] | – |
| Cc1noc(C)c1C(=O)OCC(=O)Nc1cccc(S(N)(=O)=O)c1 | 15.8 µM [falling, single point] | – |
| CCOC(=O)c1c(C)[nH]c(C(=O)COC(=O)c2ccc(O)cc2)c1C | 11.2 µM [falling, partial curve, poor fit] | – |
| CCNC(=S)Nc1ccc(-c2nc3ccccc3[nH]2)cc1 | 7.94 µM [falling, partial curve, poor fit] | – |
| Cc1ccccc1CSCCNC(=O)CSCc1ccc([N+](=O)[O-])cc1 | 22.4 µM [falling, single point] | – |
| O=C(O)c1cc(N/N=C/c2ccc(-c3ccc(F)cc3)o2)ccc1Cl | 7.08 µM [falling, partial curve, poor fit] | – |
| Cc1nn(-c2ccccc2)c(N2CCCC2)c1/C=N/NC(=O)c1cc2ccccc2cc1O | 16.4 µM [falling, partial curve, poor fit] | – |
| O=C1CCCCc2sc(Br)c([N+](=O)[O-])c2N1 | 8.91 µM [falling, partial curve, poor fit] | 11.2 µM [rising, partial curve, poor fit] |
| CCCCOc1ccc(CNC(=S)N/N=C/c2ccc(OC)c(OC)c2)cc1 | 3.66 µM [falling, single point] | – |
| CCCCCC(=O)N1CC2(C)CN(C(=O)CCCCC)CC(C)(C1)C2=O | 29.1 µM [rising, single point] | – |
| COC(=O)CSc1ccc(-c2nc3ccc(C)cc3[nH]2)cn1 | 18.4 µM [falling, partial curve] | – |
| COc1ccc(C2C(C(=O)c3sc(C)nc3C)=C(O)C(=O)N2CCN(C)C)cc1 (stereo unspecified) | 7.31 µM [rising, single point] | – |
| CCC(=O)Oc1ccc2c(c1)OC1(OC(C)=O)OC(C)CC1=C2C (stereo unspecified) | 35.5 µM [rising, single point] | – |
| CCC[C@@H](O)c1cc2cc(OC)c(OC)cc2c(=O)o1 | 14.6 µM [rising, partial curve, poor fit] | – |
| O=C(CCC(=O)c1cccs1)NCc1cccnc1 | 12.6 µM [rising, single point] | – |

Four compounds drawn at random from those above:

| SMILES | AC50 [1] | AC50 [2] |
| --- | --- | --- |
| O=C(O)c1cc(N/N=C/c2ccc(-c3ccc(F)cc3)o2)ccc1Cl | 7.08 µM [falling, partial curve, poor fit] | – |
| O=C(CCC(=O)c1cccs1)NCc1cccnc1 | 12.6 µM [rising, single point] | – |
| O=C(NCc1ccccc1)c1ccc(Cl)c(S(=O)(=O)N2CCCC2)c1 | 20.6 µM [rising, single point] | – |
| O=C1CCCCc2sc(Br)c([N+](=O)[O-])c2N1 | 8.91 µM [falling, partial curve, poor fit] | 11.2 µM [rising, partial curve, poor fit] |

Going on with the list.

| SMILES | AC50 [1] | AC50 [2] |
| --- | --- | --- |
| CCN(CC)S(=O)(=O)c1cc(OC)c(Cl)cc1Cl | 10.3 µM [rising, partial curve, poor fit] | – |
| CC(=O)Nc1ccc(S(=O)(=O)NC2(C(F)(F)F)NC(=O)N(C3CCCCC3)C2=O)cc1 (stereo unspecified) | 13 µM [falling, partial curve, poor fit] | – |
| CC(=O)c1c(-c2ccc(C)cc2)nc2c3ccccc3ccn12 | 7.94 µM [rising, partial curve, poor fit] | – |
| COC(=O)c1sc(=S)n(-c2ccccc2)c1N | 18.4 µM [rising, partial curve, poor fit] | – |
| Cc1nn(-c2ccccc2)c2nc(-c3ccncc3)cc(C(=O)NCc3ccco3)c12 | 15.8 µM [falling, partial curve, poor fit] | – |
| COC(=O)c1ccccc1NC(=O)CSc1nc(Nc2ccccc2)nc(N2CCOCC2)n1 | 7.08 µM [falling, full curve] | – |
| Cc1cc(NC(=O)CSc2ncc(C(=O)Nc3ccc(Cl)cc3)c(=O)n2C)no1 | 22.4 µM [falling, single point] | – |
| Cc1sc(NC(=O)c2ccco2)nc1-c1ccc2c(c1)CC(C)N2C(=O)C1CC1 (stereo unspecified) | 35.5 µM [falling, single point] | – |
| COc1cccc(-c2nnc(SC(C(=O)c3c[nH]c4ccccc34)c3ccccc3)n2C)c1 (stereo unspecified) | 20.6 µM [falling, single point] | – |
| CCOc1ccc(NC(=O)c2ccccn2)cc1 | 3.66 µM [falling, partial curve] | – |
| Cc1ccc(Cl)cc1NC(=S)N1CCC(c2ccccc2)C1 (stereo unspecified) | 35.5 µM [falling, single point] | – |
| O=C(Cc1noc2ccccc12)NNC(=S)Nc1ccccc1 | 17.8 µM [falling, single point] | – |
| CCCn1cc(C(CC(=O)O)C(=O)O)c2ccccc21 (stereo unspecified) | 29.1 µM [falling, single point] | – |
| COC(=O)COc1ccc(S(=O)(=O)Nc2ccc(NC(C)=O)cc2)cc1 | 35.5 µM [rising, single point] | – |
| Cc1cccc(N2C(=O)N3[C@@H]4c5ccccc5OC[C@@H]4[C@@H](c4ccccc4)[C@@]3(C)C2=O)c1 | 11.2 µM [falling, single point] | – |
| COc1ccc(-c2oc3ccccc3c2C(=O)Oc2ccccc2)cc1 | 35.5 µM [rising, single point] | – |
| O=C(NC1CCCCCCC1)c1c(O)c2ccccc2[nH]c1=O | 0.411 µM [rising, full curve, poor fit] | – |
| O=C(Cn1ncc(Cl)c(Cl)c1=O)N1CCN(S(=O)(=O)c2ccc3ccccc3c2)CC1 | 6.51 µM [falling, full curve, poor fit] | 9.2 µM [rising, partial curve, poor fit] |
| O=C(Nc1ccccc1C(=O)N1CCCC1)c1ccc(Cl)c([N+](=O)[O-])c1 | 20 µM [falling, partial curve] | – |
